Measured values taken from the supplement of paper PMC12823440, “Inhibitors supercharge kinase turnover through native proteolytic circuits” (Nature, 2025).
The other results are listed elsewhere or left out. The calls rarely recur for the same compound in another form.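 Kinases were expressed as nanoluciferase fusions in K562 cells and luminescence was read every 4 h between 2 and 18 h as percent of control, DMSO set to 100% and a positive control to 0%. A time point counts as decreased when the signal drops significantly (2 sigma). The hit call is the authors' own, does not follow from the count of time points alone, and its rule is not shown.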

By UniProt entry, the sequences of proteins in these tests, tags left out. Where a name states a change or a piece, a line headed by the entry shows the natural chain unless it says otherwise.
UniProt Q9UBF8: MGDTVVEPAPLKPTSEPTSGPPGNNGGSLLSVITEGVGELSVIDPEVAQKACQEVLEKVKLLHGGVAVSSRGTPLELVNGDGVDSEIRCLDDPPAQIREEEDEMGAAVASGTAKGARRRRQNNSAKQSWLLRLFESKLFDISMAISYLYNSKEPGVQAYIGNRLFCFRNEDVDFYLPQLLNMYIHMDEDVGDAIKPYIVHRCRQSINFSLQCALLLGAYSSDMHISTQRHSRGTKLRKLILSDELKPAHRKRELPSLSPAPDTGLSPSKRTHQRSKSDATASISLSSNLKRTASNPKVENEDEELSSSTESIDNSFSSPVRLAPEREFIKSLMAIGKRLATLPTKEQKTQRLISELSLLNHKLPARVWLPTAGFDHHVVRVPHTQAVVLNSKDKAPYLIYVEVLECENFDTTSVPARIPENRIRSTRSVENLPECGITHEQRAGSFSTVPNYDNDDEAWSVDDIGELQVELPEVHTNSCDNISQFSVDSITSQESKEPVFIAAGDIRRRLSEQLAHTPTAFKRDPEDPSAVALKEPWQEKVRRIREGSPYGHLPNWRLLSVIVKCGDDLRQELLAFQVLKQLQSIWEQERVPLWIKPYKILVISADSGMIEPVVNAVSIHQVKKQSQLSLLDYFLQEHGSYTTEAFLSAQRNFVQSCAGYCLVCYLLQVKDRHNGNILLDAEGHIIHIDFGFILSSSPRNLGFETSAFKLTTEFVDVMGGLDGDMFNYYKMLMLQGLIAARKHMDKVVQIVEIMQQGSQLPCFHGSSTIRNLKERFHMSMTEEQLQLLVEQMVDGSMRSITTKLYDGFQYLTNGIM
UniProt P53350, whole entry: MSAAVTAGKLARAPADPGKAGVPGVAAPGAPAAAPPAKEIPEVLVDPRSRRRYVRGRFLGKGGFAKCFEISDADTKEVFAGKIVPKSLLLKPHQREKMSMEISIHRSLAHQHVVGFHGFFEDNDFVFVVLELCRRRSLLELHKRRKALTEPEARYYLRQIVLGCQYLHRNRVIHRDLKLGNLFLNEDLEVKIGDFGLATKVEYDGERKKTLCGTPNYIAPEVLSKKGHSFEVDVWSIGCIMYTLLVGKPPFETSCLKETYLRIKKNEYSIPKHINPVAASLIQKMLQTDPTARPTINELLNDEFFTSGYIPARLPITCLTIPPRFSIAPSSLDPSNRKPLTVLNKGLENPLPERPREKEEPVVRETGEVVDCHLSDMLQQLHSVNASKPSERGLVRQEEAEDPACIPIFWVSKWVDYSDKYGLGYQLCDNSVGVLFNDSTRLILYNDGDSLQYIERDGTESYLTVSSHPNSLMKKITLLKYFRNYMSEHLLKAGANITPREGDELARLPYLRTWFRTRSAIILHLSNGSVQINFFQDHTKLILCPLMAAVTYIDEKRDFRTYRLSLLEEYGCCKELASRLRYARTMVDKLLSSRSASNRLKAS
UniProt P07949, whole entry, looked up: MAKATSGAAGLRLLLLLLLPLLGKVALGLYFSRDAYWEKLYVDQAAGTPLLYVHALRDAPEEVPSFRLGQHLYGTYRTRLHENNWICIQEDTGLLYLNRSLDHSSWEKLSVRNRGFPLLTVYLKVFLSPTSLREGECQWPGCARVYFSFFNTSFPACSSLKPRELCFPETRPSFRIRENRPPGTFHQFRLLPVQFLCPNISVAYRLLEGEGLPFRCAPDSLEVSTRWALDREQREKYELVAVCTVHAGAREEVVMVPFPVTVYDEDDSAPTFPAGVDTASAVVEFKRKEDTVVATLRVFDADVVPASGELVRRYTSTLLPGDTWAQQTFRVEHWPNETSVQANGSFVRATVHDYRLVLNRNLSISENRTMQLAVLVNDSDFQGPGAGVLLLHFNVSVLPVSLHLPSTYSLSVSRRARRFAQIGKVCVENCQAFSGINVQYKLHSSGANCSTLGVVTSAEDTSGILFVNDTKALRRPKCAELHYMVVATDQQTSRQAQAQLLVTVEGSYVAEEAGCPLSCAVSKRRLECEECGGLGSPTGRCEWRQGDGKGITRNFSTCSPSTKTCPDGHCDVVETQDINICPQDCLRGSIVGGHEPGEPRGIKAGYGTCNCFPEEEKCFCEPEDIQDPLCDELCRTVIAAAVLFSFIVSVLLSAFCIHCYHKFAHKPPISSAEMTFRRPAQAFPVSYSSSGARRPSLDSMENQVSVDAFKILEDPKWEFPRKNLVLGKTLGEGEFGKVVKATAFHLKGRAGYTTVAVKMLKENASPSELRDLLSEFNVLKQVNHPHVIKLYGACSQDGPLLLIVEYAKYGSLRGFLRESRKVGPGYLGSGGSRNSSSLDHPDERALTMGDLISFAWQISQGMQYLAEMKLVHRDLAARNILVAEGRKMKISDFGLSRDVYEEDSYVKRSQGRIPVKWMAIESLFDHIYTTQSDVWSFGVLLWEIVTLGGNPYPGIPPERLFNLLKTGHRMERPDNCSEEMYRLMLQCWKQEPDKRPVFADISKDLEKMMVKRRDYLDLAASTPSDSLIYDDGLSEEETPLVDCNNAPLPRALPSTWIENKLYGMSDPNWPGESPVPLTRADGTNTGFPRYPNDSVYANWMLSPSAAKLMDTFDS
UniProt P07949, whole entry M918T, looked up: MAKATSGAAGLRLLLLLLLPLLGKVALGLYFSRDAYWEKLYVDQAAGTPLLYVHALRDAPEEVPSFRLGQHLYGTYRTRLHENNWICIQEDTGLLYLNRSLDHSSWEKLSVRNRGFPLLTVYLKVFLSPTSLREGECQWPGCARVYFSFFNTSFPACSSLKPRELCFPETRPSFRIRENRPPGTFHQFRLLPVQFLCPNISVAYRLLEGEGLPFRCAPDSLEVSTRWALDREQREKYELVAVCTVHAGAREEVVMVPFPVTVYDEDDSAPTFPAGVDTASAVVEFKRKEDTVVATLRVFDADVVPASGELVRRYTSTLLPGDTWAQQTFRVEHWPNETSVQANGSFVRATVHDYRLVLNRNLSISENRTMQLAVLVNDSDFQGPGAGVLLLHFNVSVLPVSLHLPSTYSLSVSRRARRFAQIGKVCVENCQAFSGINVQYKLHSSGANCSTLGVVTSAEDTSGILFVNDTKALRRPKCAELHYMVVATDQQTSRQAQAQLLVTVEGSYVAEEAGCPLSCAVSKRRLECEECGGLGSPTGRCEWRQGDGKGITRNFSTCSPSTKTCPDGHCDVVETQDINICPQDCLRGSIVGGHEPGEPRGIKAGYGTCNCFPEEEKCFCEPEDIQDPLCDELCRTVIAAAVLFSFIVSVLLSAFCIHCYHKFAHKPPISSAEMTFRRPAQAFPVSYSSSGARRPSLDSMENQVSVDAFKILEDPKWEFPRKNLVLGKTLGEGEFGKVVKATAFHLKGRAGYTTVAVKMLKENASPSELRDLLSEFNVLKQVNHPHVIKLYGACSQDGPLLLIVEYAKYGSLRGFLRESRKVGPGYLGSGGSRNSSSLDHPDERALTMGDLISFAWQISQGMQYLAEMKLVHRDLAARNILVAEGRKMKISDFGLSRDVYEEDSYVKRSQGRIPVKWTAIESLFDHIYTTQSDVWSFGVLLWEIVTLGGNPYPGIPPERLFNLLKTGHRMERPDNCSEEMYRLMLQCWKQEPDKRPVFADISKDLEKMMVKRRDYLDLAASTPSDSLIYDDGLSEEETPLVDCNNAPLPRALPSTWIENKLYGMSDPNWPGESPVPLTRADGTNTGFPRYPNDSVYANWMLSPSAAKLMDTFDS
UniProt Q9BRS2: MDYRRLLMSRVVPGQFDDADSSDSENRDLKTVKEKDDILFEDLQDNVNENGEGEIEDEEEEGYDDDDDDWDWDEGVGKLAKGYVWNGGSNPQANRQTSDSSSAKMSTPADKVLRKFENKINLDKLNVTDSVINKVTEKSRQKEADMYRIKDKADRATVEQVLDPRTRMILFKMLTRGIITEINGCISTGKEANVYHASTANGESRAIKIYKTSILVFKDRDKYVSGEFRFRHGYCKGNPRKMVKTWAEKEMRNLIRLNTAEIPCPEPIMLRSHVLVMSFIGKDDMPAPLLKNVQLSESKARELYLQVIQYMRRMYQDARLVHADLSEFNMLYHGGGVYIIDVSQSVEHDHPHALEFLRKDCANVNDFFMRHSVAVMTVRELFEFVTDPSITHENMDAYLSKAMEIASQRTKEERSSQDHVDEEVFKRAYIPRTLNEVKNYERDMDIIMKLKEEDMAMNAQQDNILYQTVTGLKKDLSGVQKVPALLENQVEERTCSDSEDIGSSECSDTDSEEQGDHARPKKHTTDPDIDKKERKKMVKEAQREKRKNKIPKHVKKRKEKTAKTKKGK
UniProt Q15418, whole entry: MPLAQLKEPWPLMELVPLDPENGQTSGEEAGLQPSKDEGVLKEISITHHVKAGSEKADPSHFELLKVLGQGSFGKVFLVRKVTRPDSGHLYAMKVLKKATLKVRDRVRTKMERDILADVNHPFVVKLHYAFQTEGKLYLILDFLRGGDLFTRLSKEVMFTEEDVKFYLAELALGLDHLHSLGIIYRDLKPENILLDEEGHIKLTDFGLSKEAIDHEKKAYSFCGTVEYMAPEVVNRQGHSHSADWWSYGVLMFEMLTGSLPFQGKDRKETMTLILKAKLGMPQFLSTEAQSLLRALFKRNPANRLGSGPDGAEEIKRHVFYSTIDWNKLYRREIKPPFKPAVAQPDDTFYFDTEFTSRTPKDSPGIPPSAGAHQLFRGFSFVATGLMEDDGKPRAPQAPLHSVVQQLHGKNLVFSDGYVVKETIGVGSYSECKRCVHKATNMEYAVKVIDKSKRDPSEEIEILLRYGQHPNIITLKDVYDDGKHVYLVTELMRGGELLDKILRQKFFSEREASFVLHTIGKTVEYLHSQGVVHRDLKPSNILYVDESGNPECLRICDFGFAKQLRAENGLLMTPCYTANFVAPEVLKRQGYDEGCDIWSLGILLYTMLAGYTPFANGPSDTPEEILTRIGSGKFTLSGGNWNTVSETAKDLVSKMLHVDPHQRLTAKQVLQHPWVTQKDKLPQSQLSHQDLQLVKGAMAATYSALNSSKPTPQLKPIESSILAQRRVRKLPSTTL
UniProt Q9NYA1, whole entry: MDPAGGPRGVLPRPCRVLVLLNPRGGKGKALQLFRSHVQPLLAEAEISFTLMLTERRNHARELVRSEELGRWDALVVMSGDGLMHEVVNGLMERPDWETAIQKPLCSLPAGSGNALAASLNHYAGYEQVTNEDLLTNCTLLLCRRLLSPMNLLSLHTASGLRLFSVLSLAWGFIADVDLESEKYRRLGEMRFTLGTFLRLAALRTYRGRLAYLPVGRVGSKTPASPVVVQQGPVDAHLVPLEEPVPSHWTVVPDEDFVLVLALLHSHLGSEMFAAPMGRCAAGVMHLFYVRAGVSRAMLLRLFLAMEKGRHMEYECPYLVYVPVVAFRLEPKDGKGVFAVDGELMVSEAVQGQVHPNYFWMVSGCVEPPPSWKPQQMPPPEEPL
UniProt Q9Y6E0: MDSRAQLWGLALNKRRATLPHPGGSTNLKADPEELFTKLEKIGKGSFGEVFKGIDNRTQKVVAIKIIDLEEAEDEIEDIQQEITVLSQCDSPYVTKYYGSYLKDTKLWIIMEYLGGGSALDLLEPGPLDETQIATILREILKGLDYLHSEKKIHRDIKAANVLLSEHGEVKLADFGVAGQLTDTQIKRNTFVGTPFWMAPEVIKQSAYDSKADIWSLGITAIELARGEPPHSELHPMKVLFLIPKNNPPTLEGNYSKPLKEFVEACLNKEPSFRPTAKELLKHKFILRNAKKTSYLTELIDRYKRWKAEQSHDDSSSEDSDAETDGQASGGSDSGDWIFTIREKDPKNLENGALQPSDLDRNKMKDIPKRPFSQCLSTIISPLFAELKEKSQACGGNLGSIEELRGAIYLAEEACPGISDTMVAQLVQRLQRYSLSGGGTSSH

How the values were obtained:
Test in all cases: kinase-Nluc reporter destabilization hit call (1 = scored as downregulated) (binary); higher = compound decreases kinase abundance
Details in all cases: K562; 2-18 h
PDPK1 = PDPK1 (UniProt O15530)
PIK4CA = PIK4CA (UniProt P42356)
PIK4CB = PIK4CB (UniProt Q9UBF8)
PLK1 = PLK1 (UniProt P53350)
PRKAA1 = PRKAA1 (UniProt Q13131)
PRKCA = PRKCA (UniProt P17252)
PTK2 = PTK2 (UniProt Q05397)
RAF1 = RAF1 (UniProt P04049)
[1] = target: RAF1_S257L (clone: RAF1_mut) (UniProt P04049)
RET = RET (UniProt P07949)
[2] = target: RET_M918T (clone: RET_mut) (UniProt P07949)
RIOK1 = RIOK1 (UniProt Q9BRS2)
RIPK1 = RIPK1 (UniProt Q13546)
RIPK2 = RIPK2 (UniProt O43353)
ROR2 = ROR2 (UniProt Q01974)
RPS6KA1 = RPS6KA1 (UniProt Q15418)
SPHK1 = SPHK1 (UniProt Q9NYA1)
SRC = SRC (UniProt P12931)
STK24 = STK24 (UniProt Q9Y6E0)
PTK2B = PTK2B (UniProt Q14289)

Measured: kinase-Nluc reporter destabilization hit call

N#CC(C#N)=Cc1ccc(O)c(O)c1 [Tyrphostin 23] (10 µM)
inactive: PDPK1 = 0 | PIK4CA 0 | PIK4CB 0 | PLK1 = 0 | PRKAA1 = 0 | PRKCA 0 | PTK2 = 0 | RAF1 = 0 | [1] 0 | RET 0 | [2] 0 | RIOK1 = 0 | RIPK1 = 0 | RIPK2 = 0 | ROR2 = 0 | RPS6KA1 = 0 | SPHK1 = 0 | SRC 0 | STK24 = 0

COC[C@H]1OC(=O)c2coc3c2[C@@]1(C)C1=C(C3=O)[C@@H]2CCC(=O)[C@@]2(C)C[C@H]1OC(C)=O [Wortmannin] (2.5 µM)
inactive: PDPK1 = 0 | PIK4CA 0 | PIK4CB 0 | PRKAA1 = 0 | PRKCA 0 | PTK2 = 0 | PTK2B 0 | RAF1 = 0 | [1] 0 | RET 0 | [2] 0 | RIOK1 = 0 | RIPK1 = 0 | RIPK2 = 0 | ROR2 = 0 | RPS6KA1 = 0 | SPHK1 = 0 | SRC 0 | STK24 = 0

C[C@H](CCC(=O)O)C[C@H](C)C[C@H](C)C(=O)/C=C(\O)[C@H](C)C[C@H](C)C/C=C/[C@@H](C)[C@@H](O)[C@@H](C)[C@@H](O)C[C@@H]1CC[C@@](C)([C@H]2CC[C@@](C)([C@@H](C)O)O2)O1 [Ionomycin (calcium)] (2.5 µM)
inactive: PDPK1 = 0 | PIK4CA 0 | PIK4CB 0 | PLK1 = 0 | PRKCA 0 | PTK2 = 0 | PTK2B 0 | RAF1 = 0 | [1] 0 | RET 0 | [2] 0 | RIPK1 = 0 | RIPK2 = 0 | ROR2 = 0 | RPS6KA1 = 0 | SPHK1 = 0 | SRC 0 | STK24 = 0
active: PRKAA1 = 1 | RIOK1 = 1

COc1ccc2c(c1OC)C(OC)N(C)c1c-2ccc2cc3c(cc12)OCO3 (stereo not given) [Angoline] (10 µM)
inactive: PDPK1 = 0 | PIK4CA 0 | PIK4CB 0 | PLK1 = 0 | PRKAA1 = 0 | PRKCA 0 | PTK2 = 0 | PTK2B 0 | RAF1 = 0 | [1] 0 | RET 0 | [2] 0 | RIOK1 = 0 | RIPK1 = 0 | RIPK2 = 0 | ROR2 = 0 | RPS6KA1 = 0 | SPHK1 = 0 | SRC 0 | STK24 = 0

CC1=C[C@]23C(=O)[C@@H](C=C(CO)[C@@H](O)[C@]2(O)[C@H]1O)[C@H]1[C@@H](C[C@H]3C)C1(C)C [Ingenol] (10 µM)
inactive: PDPK1 = 0 | PIK4CA 0 | PIK4CB 0 | PLK1 = 0 | PRKAA1 = 0 | PRKCA 0 | PTK2 = 0 | PTK2B 0 | RAF1 = 0 | [1] 0 | RET 0 | [2] 0 | RIOK1 = 0 | RIPK1 = 0 | RIPK2 = 0 | ROR2 = 0 | RPS6KA1 = 0 | SPHK1 = 0 | SRC 0 | STK24 = 0

O=C(O)c1nn(Cc2ccc(Cl)cc2Cl)c2ccccc12 [Lonidamine] (10 µM)
inactive: PDPK1 = 0 | PIK4CA 0 | PIK4CB 0 | PLK1 = 0 | PRKAA1 = 0 | PRKCA 0 | PTK2 = 0 | PTK2B 0 | RAF1 = 0 | [1] 0 | RET 0 | [2] 0 | RIOK1 = 0 | RIPK1 = 0 | RIPK2 = 0 | ROR2 = 0 | RPS6KA1 = 0 | SPHK1 = 0 | SRC 0 | STK24 = 0

C=CC(=O)Nc1ccc2[nH]c(=O)n(C3CCN(Cc4ccc(-c5nc6cc[nH]c(=O)c6cc5-c5ccccc5)cc4)CC3)c2c1 [Borussertib] (10 µM)
inactive: PDPK1 = 0 | PIK4CA 0 | PIK4CB 0 | PLK1 = 0 | PRKAA1 = 0 | PRKCA 0 | PTK2 = 0 | PTK2B 0 | RAF1 = 0 | [1] 0 | RET 0 | [2] 0 | RIOK1 = 0 | RIPK1 = 0 | RIPK2 = 0 | ROR2 = 0 | RPS6KA1 = 0 | SPHK1 = 0 | SRC 0 | STK24 = 0

COc1ccc2c(c1)/C(=C/c1cnc[nH]1)C(=O)N2 (2.5 µM)
inactive: PDPK1 = 0 | PIK4CA 0 | PIK4CB 0 | PLK1 = 0 | PRKAA1 = 0 | PRKCA 0 | PTK2 = 0 | RAF1 = 0 | [1] 0 | RIOK1 = 0 | RIPK1 = 0 | RIPK2 = 0 | ROR2 = 0 | RPS6KA1 = 0 | SPHK1 = 0 | SRC 0 | STK24 = 0

CCN1CCN(C(=O)Cc2ccc(Nc3ncc(F)c(Nc4ccc(C(=O)Nc5ccccc5Cl)cc4)n3)cc2)CC1 (2.5 µM)
inactive: PDPK1 = 0 | PIK4CA 0 | PIK4CB 0 | PLK1 = 0 | PRKAA1 = 0 | PRKCA 0 | PTK2 = 0 | PTK2B 0 | RAF1 = 0 | [1] 0 | RET 0 | [2] 0 | RIOK1 = 0 | RIPK1 = 0 | RIPK2 = 0 | ROR2 = 0 | RPS6KA1 = 0 | SPHK1 = 0 | SRC 0 | STK24 = 0

Pulled one by one from the entries so far (2):
COc1ccc2c(c1)/C(=C/c1cnc[nH]1)C(=O)N2 (2.5 µM)
inactive: PDPK1 = 0 | PIK4CA 0 | PIK4CB 0 | PLK1 = 0 | PRKAA1 = 0 | PRKCA 0 | PTK2 = 0 | RAF1 = 0 | [1] 0 | RIOK1 = 0 | RIPK1 = 0 | RIPK2 = 0 | ROR2 = 0 | RPS6KA1 = 0 | SPHK1 = 0 | SRC 0 | STK24 = 0

O=C(O)c1nn(Cc2ccc(Cl)cc2Cl)c2ccccc12 [Lonidamine] (10 µM)
inactive: PDPK1 = 0 | PIK4CA 0 | PIK4CB 0 | PLK1 = 0 | PRKAA1 = 0 | PRKCA 0 | PTK2 = 0 | PTK2B 0 | RAF1 = 0 | [1] 0 | RET 0 | [2] 0 | RIOK1 = 0 | RIPK1 = 0 | RIPK2 = 0 | ROR2 = 0 | RPS6KA1 = 0 | SPHK1 = 0 | SRC 0 | STK24 = 0

(further entries)

CN(C)C(=O)c1ccc(Cn2c(C(=O)O)cc3c(Br)cc(Sc4ccc(Cl)c(Cl)c4)cc32)cc1 [Rheb inhibitor NR1] (10 µM)
inactive: PDPK1 = 0 | PIK4CA 0 | PIK4CB 0 | PLK1 = 0 | PRKAA1 = 0 | PRKCA 0 | PTK2 = 0 | PTK2B 0 | RAF1 = 0 | [1] 0 | RET 0 | [2] 0 | RIOK1 = 0 | RIPK1 = 0 | RIPK2 = 0 | ROR2 = 0 | RPS6KA1 = 0 | SPHK1 = 0 | SRC 0 | STK24 = 0

C[S+]([O-])/C=C/CCN=C=S (stereo not given) [Sulforaphene] (10 µM)
inactive: PDPK1 = 0 | PIK4CA 0 | PIK4CB 0 | PLK1 = 0 | PRKAA1 = 0 | PRKCA 0 | PTK2 = 0 | PTK2B 0 | RAF1 = 0 | [1] 0 | RET 0 | [2] 0 | RIOK1 = 0 | RIPK1 = 0 | RIPK2 = 0 | ROR2 = 0 | RPS6KA1 = 0 | SPHK1 = 0 | SRC 0 | STK24 = 0

COc1ccc(N(C(=O)Oc2c(C)cccc2C)c2ccnc(Nc3ccc(N4CCN(C)CC4)cc3)n2)c(OC)c1 (2.5 µM)
inactive: PDPK1 = 0 | PIK4CA 0 | PIK4CB 0 | PLK1 = 0 | PRKAA1 = 0 | PRKCA 0 | PTK2 = 0 | PTK2B 0 | RAF1 = 0 | [1] 0 | RET 0 | [2] 0 | RIOK1 = 0 | RIPK1 = 0 | RIPK2 = 0 | ROR2 = 0 | RPS6KA1 = 0 | SPHK1 = 0 | SRC 0 | STK24 = 0

O=Cc1cn(Cc2ccc(Cl)cc2)c2ccccc12 [Oncrasin-1] (10 µM)
inactive: PDPK1 = 0 | PIK4CA 0 | PIK4CB 0 | PLK1 = 0 | PRKAA1 = 0 | PRKCA 0 | PTK2 = 0 | PTK2B 0 | RAF1 = 0 | [1] 0 | RET 0 | [2] 0 | RIOK1 = 0 | RIPK1 = 0 | RIPK2 = 0 | ROR2 = 0 | RPS6KA1 = 0 | SPHK1 = 0 | SRC 0 | STK24 = 0

Cc1ccccc1-n1c(Cn2ncc3c(N)ncnc32)nc2cccc(C)c2c1=O (10 µM)
inactive: PDPK1 = 0 | PIK4CA 0 | PIK4CB 0 | PLK1 = 0 | PRKAA1 = 0 | PRKCA 0 | PTK2 = 0 | PTK2B 0 | RAF1 = 0 | [1] 0 | RET 0 | [2] 0 | RIOK1 = 0 | RIPK1 = 0 | RIPK2 = 0 | ROR2 = 0 | RPS6KA1 = 0 | SPHK1 = 0 | SRC 0 | STK24 = 0

N#CC(C#N)=NNc1cccc(Cl)c1 (2.5 µM)
inactive: PDPK1 = 0 | PIK4CA 0 | PIK4CB 0 | PLK1 = 0 | PRKAA1 = 0 | PRKCA 0 | PTK2 = 0 | PTK2B 0 | RAF1 = 0 | [1] 0 | RET 0 | [2] 0 | RIOK1 = 0 | RIPK1 = 0 | RIPK2 = 0 | ROR2 = 0 | RPS6KA1 = 0 | SPHK1 = 0 | SRC 0 | STK24 = 0

O=C(O)c1sc2cc(Cl)ccc2c1Cl (10 µM)
inactive: PDPK1 = 0 | PIK4CA 0 | PIK4CB 0 | PLK1 = 0 | PRKAA1 = 0 | PRKCA 0 | PTK2 = 0 | PTK2B 0 | RAF1 = 0 | [1] 0 | RET 0 | [2] 0 | RIOK1 = 0 | RIPK1 = 0 | RIPK2 = 0 | ROR2 = 0 | RPS6KA1 = 0 | SPHK1 = 0 | SRC 0 | STK24 = 0

CCOC(=O)c1c(/C(C#N)=C\N)c2ccc(Cl)c(Cl)c2n1C (10 µM)
inactive: PDPK1 = 0 | PIK4CA 0 | PIK4CB 0 | PLK1 = 0 | PRKAA1 = 0 | PRKCA 0 | PTK2 = 0 | PTK2B 0 | RAF1 = 0 | [1] 0 | RET 0 | [2] 0 | RIOK1 = 0 | RIPK1 = 0 | RIPK2 = 0 | ROR2 = 0 | RPS6KA1 = 0 | SPHK1 = 0 | SRC 0 | STK24 = 0
